Assay [1] deals with 6×His-TEV-hAhR(1–287) (human) (UniProt P35869). Kind of assay: co-purification (His-tag affinity, then ion-exchange or heparin and/or size-exclusion chromatography); 6×His-tagged Class I protein and untagged ARNT or ARNT2 co-expressed from one baculovirus (insect cells) or two plasmids (E. coli); His-tag purification in 500 mM NaCl, tag removed by TEV, further chromatography; gives untagged heterodimers. For orientation: SEC sorts molecules by how far they enter the pores of the column.

Protein sequences, listed by entry. Tags and fused reporters are not part of them. Residues count along the entry.
UniProt P35869, residues 1-287: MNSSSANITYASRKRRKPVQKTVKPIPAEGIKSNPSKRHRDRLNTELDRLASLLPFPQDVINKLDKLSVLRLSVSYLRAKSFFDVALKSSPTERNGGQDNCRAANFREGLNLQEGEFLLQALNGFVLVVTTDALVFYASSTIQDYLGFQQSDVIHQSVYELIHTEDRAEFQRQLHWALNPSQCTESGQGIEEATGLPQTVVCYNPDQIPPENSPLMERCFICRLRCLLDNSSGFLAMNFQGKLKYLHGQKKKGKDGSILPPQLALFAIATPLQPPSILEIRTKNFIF
UniProt P27540, residues 1-362: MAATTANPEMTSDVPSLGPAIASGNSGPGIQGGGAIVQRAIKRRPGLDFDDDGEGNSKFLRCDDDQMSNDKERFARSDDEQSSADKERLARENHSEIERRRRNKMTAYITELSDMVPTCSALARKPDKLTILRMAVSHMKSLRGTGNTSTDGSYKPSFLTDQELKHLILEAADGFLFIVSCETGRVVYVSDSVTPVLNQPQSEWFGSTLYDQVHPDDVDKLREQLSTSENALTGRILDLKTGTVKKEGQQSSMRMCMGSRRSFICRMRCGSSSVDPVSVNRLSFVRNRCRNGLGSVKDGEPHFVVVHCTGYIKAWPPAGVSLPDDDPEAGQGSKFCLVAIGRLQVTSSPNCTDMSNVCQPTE
UniProt Q61324, residues 1-481: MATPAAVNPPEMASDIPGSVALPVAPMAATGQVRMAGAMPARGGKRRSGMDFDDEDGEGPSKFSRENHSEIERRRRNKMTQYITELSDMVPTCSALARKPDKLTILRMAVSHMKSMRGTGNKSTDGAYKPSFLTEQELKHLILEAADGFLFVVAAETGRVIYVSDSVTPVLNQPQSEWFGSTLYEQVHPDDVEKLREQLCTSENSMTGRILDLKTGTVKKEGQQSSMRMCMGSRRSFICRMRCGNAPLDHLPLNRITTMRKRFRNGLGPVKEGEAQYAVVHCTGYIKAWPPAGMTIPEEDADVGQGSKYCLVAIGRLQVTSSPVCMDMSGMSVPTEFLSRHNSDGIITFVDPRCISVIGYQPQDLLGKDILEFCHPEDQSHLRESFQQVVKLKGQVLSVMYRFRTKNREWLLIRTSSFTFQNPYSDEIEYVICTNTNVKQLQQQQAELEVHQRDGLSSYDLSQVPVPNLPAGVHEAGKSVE

Assay [2] addresses T1, Truncated mNPAS4 (1–329), 6×His-TEV leader (mouse) (UniProt Q8BGD7).
T1 sequence: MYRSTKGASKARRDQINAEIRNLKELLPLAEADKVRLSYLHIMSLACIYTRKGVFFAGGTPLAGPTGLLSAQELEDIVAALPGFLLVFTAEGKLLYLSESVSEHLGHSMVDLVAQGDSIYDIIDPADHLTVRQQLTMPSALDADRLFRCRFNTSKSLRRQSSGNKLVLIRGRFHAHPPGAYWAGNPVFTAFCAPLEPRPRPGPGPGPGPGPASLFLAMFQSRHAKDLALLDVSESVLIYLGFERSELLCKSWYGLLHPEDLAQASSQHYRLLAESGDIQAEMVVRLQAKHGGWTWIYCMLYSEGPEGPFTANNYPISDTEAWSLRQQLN
The description is as above.

These are yes or no findings as the source states them, for the method shown. Some entries that bind do so weakly or less than the wild type. For some assays here: Sequences can lack the tags named with a protein.

In the case of “hARNT(1–362) (from UniProt P27540 1-362) (domain or fragment)”, the binding entry in assay [1] is “binds”.

Turning to “mARNT2 (1–481), untagged (from UniProt Q61324 1-481) (domain or fragment)”, in assay [2], the binding entry is on record as “binds”.

Values taken from publication PMC12774657.
